Data as given in PubChem BioAssay AID1671195 (Yale University, 2021).

Assay: 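Knockdowns that increase or decrease uptake of fluorescent LDL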 (primary screen)
Cell system: human Huh7 hepatoma cells
Reagent: siRNA pool against human genes, 18 nM
Timing: about 2 to 2.5 days of knockdown, then 8 h LDL uptake
Conditions: DiI-labelled LDL at 30 µg/ml for 8 h, in lipoprotein-deficient serum medium
Read-out: 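Per-cell DiI-LDL intensity by automated imaging; well means scaled to the plate median and given as a robust z-score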
Scale: robust z-score: higher = more LDL uptake after knockdown
Active means: 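a gene counts as active if at least two replicate z-scores exceed ±2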
Shown is one part, drawn at random, of about 22,000 reagents. Over the whole deposit, about 1,510 (6.9%) are marked active. 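Active includes knockdowns raising or lowering LDL uptake; positive z-scores mean more uptake, negative mean less.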 Entries without a mark were called inactive. Reagent sequences are not shown.

no.	target gene	robust z-score, replicate 1	robust z-score, replicate 2	robust z-score, replicate 3
1	MLNR	-0.269	0.405	-0.185
2	ADK	0.0399	0.518	-0.3
3	SERPIND1	-2.2	-1.7	-0.564
4	GJA10	1.05	-0.276	-0.411
5	ABCA2	-0.34	-0.156	-0.135
6	PRAMEF1	-0.646	-0.562	-0.909
7	ANXA10	0.574	0.346	0.216
8	SUMO4	2.38 (active)	3.22	2.94
9	RAB3B	1.66	1.33	1.44
10	PI4KB	1.19	0.501	0.901
11	TP53BP1	-0.0349	1.02	0.548
12	LOC440000 (retired record)	-0.104	-0.4	-0.804
13	PPP4R1L	0.267	0.385	3.35
14	PPP1R13L	1.65	2.05	1.34
15	SWT1	-0.864	-1.51	-0.112
16	LOC440701 (retired record)	-0.634	-0.411	-0.647
17	ENTR1P1	-0.196	-0.627	-0.407
18	CFP	4.19 (active)	3.13	3.43
19	PECR	-2.37 (active)	-1.67	-2.04
20	MTMR6	0.464	0.765	0.566
21	ELAVL2	-1.17	-1.23	-0.936
22	ZFP36	0.138	0.15	0.195
23	LOC400692 (retired record)	1.8	0.663	0.766
24	RASSF6	-0.192	-0.182	0.477
25	PANX1	-1.31	-0.53	-0.881
26	CIC	0.517	-0.8	-0.68
27	SRRM2-AS1	-1.25	-0.465	-1.79
28	CYP2F1	2.32 (active)	1.95	1.61
29	CCDC88B	-0.209	-0.189	-0.232
30	RBBP7	-0.426	-0.497	-0.843
31	FAM9A	-0.171	-0.596	-0.475
32	C1orf21	1.69 (active)	2.78	3.16
33	TSPEAR	0.884	1.18	1.31
34	EGR4	-0.622	-0.0539	-0.475
35	TRIM68	4.96 (active)	1.9	3.21
36	LETM1	0.782	0.749	1.1
37	SF1	-0.761	-1.25	-1.42
38	GABRA1	0.0529	0.539	0.178
39	ATXN7L1	0.571	0.465	0.585
40	SCARA3	0.886	-0.0617	0.325
41	NECAB1	-0.327	-0.424	-0.986
42	LINC00466	2.05 (active)	2.81	2.11
43	VPS33A	1	1.02	0.941
44	NR1H4	-0.505	-1.35	-0.453
45	RNF2	-0.633	-0.464	-0.367
46	HPS1	-0.44	-0.842	-0.385

Records listed above called active (7):
target gene	robust z-score, replicate 1	robust z-score, replicate 2	robust z-score, replicate 3
SUMO4	2.38 (active)	3.22	2.94
CFP	4.19 (active)	3.13	3.43
PECR	-2.37 (active)	-1.67	-2.04
CYP2F1	2.32 (active)	1.95	1.61
C1orf21	1.69 (active)	2.78	3.16
TRIM68	4.96 (active)	1.9	3.21
LINC00466	2.05 (active)	2.81	2.11
